For 1 substance, binding results are on record in publication PMC5546511.

Chains of the proteins cited; added tags and fusions are not shown. Residues count along the entry.
UniProt Q9BZS1, residues 1-417: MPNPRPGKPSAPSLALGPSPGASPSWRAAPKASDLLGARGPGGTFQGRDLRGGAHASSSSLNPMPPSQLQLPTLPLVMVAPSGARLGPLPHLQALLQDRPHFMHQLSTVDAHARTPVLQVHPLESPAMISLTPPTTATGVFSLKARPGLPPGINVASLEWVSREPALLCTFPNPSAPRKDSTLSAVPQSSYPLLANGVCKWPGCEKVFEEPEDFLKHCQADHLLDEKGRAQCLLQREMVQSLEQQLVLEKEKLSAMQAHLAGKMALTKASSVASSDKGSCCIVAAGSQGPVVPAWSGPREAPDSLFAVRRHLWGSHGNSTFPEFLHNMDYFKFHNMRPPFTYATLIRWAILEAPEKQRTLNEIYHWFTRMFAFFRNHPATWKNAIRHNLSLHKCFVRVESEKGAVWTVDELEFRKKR
UniProt Q04206: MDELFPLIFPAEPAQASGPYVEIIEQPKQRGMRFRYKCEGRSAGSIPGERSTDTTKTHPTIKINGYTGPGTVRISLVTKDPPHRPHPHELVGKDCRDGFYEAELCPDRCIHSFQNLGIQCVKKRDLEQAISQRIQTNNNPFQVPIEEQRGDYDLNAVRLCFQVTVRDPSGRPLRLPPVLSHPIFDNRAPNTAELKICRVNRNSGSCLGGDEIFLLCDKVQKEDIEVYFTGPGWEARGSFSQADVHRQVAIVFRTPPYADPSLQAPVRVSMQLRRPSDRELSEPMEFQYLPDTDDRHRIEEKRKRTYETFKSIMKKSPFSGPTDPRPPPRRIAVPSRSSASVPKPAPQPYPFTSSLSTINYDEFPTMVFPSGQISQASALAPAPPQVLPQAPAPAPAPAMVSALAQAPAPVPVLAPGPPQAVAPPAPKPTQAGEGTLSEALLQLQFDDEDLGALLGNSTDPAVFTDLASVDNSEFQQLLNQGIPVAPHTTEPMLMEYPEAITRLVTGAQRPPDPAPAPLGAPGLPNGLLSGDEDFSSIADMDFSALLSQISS

These are yes or no findings as the source states them, for the method shown. In cells and extracts the contact can be indirect. Some results given as binding are weak or reduced against the parent protein; the word gives no strength.

For the assay, the target named is FOXP3 (human (endogenous in colorectal cancer sphere cells)) (UniProt Q9BZS1). The experiment in a line: co-IP; endogenous proteins in lysate of sphere cells; IP with anti-FOXP3 (Abcam) or, in the reverse direction, anti-p65 (Cell Signaling) on Dynabeads Protein G, 2 hours at 4°C, then western blot. Background: Immunoblotting shows a protein as a band on a membrane.

“p65 subunit of NFκB (from UniProt Q04206 1-551)”: the binding entry is reported as “binds”.
